Laboratory results reported in US12227802B2, “Nucleotides with a 3′ AOM blocking group” (Illumina Cambridge Limited, priority 2018, dated 2025).
Some results were stated once for a whole list of compounds, not compound by compound.

Tests used:
[1] = Stability of 5′-monophosphate 3′-protected T nucleotides in incorporation buffer at 65° C. (HPLC); format: physicochemical; conditions: 100 mM ethanolamine buffer pH 9.8, 100 mM NaCl, 2.5 mM EDTA, 2 weeks, versus standard azidomethyl blocking group
[2] = Deblocking test of 3′ blocked T nucleotides in solution (Pd/THP for AOM, THP for azidomethyl; HPLC); format: physicochemical; conditions: Pd catalyst to substrate ratio 5:1; 3′-AOM T as reference
Method: In this example, deblocking tests for 5′-mP 3′-AOM T and the standard 5′-mP 3′-O-azidomethyl T nucleotide were performed individually in a solution unique to each blocking group. Conditions were formulated to mimic Illumina's standard deblock reagent as closely as possible, and follow the same methodology. Concentrations of active deblock reagent, buffer, and nucleoside are kept the same across all tests, but the identity of each component was unique. In this way, the observed difference in rate between the individual deblocking chemistries cannot due to the differences in concentration of formulation.
Nucleotide: 5′-monophosphate 3′-O-azidomethyl T. Active Deblock reagent: tris(hydroxypropyl)phosphine (THP) (1M in 18 mΩ water). (Optional) Additive: Sodium ascorbate (0.1 mM in 18 mΩ water) final conc.=1 mM. Buffer: Ethanolamine pH 9.8 (2M in 18 mΩ water). Quenching reagent: H2O2.
Nucleotide: 5′-monophosphate […]. A stock solution of 3′-AOM T was diluted to 0.1 mM in a 100 mM ethanolamine buffer (pH 9.8), in a glass vial under nitrogen. A stock solution of sodium ascorbate additive was added to a final concentration of 0.1 mM and the solution stirred 5 minutes. To commence the assay, the deblock reagents (Pd/THP=⅕; sodium ascorbate; ethanolamine) were added, to a final concentration of 1 mM THP, to the stirring solution at room temperature. […]

Compound	improvement in the reduction of the deblocking rate in the solution [1]	deblocking rate, times slower than AOM [2] [times]
C=CCOCOC1C[C@H](n2cc(C)c(=O)[nH]c2=O)O[C@@H]1COP(=O)(O)O (stereo partly drawn) [AOM]	30-50 fold	
CC/C=C/COCOC1CC(n2cc(C)c(=O)[nH]c2=O)OC1CO (stereo not drawn) [eAOM]		2 to 3
C=C(C)COCOC1CC(n2cc(C)c(=O)[nH]c2=O)OC1CO (stereo not drawn) [iAOM]		2 to 3
